In PubChem BioAssay AID212 (DTP/NCI, 2004):
Inconclusive results are not listed.

Test system: BDF1 mice, colon carcinoma 38 sc, T/C %
Assay: NCI In Vivo Anticancer Drug Screen. Data for tumor model Colon Carcinoma 38 (subcutaneous) in B6D2F1 (BDF1) mice
Details: endpoint: median tumor weight (est.), schedule: Q07DX003 (ip), vehicle: saline, higher = larger tumour
Protocol: The antitumor activity of compounds was measured in mice bearing transplantable tumors. Survival or tumor size were measured and the results are expressed as the measurement made in the treated group (T) divided by the measurement made in the vehicle treated control group (C). The tumor model used in this assay is Colon Carcinoma 38 (subcutaneous) in B6D2F1 (BDF1) mice

## COc1cc2c(c(OC)c1OC)-c1ccc(OC)c(=O)cc1[C@@H](N)CC2
dose: 2.5 mg/kg/injection
  T/C: 102 % of control
dose: 5.0 mg/kg/injection
  T/C: 112 % of control
dose: 10.0 mg/kg/injection
  T/C: 56 % of control
dose: 20.0 mg/kg/injection
  T/C: 22 % of control
dose: 40.0 mg/kg/injection
  T/C: 17 % of control
dose: 80.0 mg/kg/injection
  T/C: 17 % of control
